Results are given in words; binding and its absence hold for the method and conditions named. Binding seen in cells or lysates may run through a third protein. Some binding calls cover weakened binding; strength is not graded here.
How the values were obtained:
[1] = biological target: HA-Snail (UniProt O95863); assay: co-IP; reverse IP: HEK-293T cells transfected with Flag-p66β and HA-Snail; anti-HA antibody and protein A/G agarose 12 h at 4 °C; blot with anti-Flag
[2] = biological target: p66β (endogenous, MDA-MB-231 cells) (human (endogenous in MDA-MB-231)) (UniProt Q8WXI9); assay: co-IP; lysates of MDA-MB-231 cells with an anti-p66β antibody and protein A/G beads; co-eluted proteins detected with a Snail antibody; both proteins endogenous
[3] = biological target: Flag-p66β (UniProt Q8WXI9 1-593); assay: co-IP; HEK-293T cells transfected with Flag-p66β (or its truncations) and HA-Snail and/or HA-MTA2; IP buffer (1% Triton X-100, 150 mM NaCl, 50 mM Tris/HCl pH 7.5); anti-Flag M2 affinity gel 4 h at 4 °C; blot with anti-HA; in Fig. S3 with increasing expression of HA-Snail
[4] = biological target: GST-Snail (UniProt O95863 1-264); assay: pull-down; bacterially expressed GST-Snail or its truncations incubated with HA-p66β prepared from HEK-293T cells and GST beads; co-eluted HA-p66β detected by anti-HA Western blot; only the target purified
[5] = biological target: Flag-Snail (stably expressed in MDA-MB-231 cells) (UniProt O95863); assay: co-IP; lysates of MDA-MB-231-Flag-Snail stable cells on anti-Flag M2 beads; co-eluted proteins detected with an anti-p66β antibody

Sequences of proteins named here, by UniProt entry; tags and fusion partners are left off.
UniProt O95863: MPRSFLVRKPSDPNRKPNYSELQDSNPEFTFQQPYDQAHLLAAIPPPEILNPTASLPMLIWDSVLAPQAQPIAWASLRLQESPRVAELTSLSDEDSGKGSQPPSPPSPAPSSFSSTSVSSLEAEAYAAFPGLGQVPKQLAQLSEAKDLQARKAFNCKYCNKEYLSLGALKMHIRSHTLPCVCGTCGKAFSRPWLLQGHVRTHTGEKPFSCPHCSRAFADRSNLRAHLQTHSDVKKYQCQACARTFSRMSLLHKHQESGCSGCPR
UniProt Q8WXI9: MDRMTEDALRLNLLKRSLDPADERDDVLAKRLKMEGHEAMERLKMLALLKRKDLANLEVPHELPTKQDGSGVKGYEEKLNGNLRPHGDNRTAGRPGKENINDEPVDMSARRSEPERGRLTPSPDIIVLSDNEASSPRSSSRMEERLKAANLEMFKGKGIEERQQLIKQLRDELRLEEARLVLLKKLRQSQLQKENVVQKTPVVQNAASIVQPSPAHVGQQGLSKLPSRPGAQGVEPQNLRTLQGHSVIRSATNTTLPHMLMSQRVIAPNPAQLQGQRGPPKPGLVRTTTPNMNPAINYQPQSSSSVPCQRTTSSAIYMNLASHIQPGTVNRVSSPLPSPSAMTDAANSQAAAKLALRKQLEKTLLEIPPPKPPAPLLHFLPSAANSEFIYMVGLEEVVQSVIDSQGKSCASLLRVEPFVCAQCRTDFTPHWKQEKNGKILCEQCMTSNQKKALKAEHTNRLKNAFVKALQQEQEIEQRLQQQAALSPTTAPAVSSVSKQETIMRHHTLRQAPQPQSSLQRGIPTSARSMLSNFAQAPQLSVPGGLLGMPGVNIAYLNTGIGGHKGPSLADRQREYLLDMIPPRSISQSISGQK

Flag-p66β (full-length) (from UniProt Q8WXI9 1-593)
binding [1]: binds

Snail (endogenous, MDA-MB-231 cells) (from UniProt O95863 1-264)
binding [2]: binds

HA-Snail (from UniProt O95863 1-264)
binding [3]: binds

HA-p66β (from UniProt Q8WXI9 1-593)
binding [4]: binds

p66β (endogenous, MDA-MB-231 cells) (from UniProt Q8WXI9 1-593)
binding [5]: binds

From publication PMC10307831, “GATA zinc finger protein p66β promotes breast cancer cell migration by acting as a co-activator of Snail”
